Measured values taken from PMC3591269.
Results are given in words; binding and its absence hold for the method and conditions named. In cells and extracts the contact can be indirect. For some assays here: Binding can be weak; no strength is given.

The chains behind the UniProt entries cited, without tags or fusion partners. Where a name states a change or a piece, a line headed by the entry shows the natural chain unless it says otherwise. Residues count along the entry.
UniProt Q9LG05: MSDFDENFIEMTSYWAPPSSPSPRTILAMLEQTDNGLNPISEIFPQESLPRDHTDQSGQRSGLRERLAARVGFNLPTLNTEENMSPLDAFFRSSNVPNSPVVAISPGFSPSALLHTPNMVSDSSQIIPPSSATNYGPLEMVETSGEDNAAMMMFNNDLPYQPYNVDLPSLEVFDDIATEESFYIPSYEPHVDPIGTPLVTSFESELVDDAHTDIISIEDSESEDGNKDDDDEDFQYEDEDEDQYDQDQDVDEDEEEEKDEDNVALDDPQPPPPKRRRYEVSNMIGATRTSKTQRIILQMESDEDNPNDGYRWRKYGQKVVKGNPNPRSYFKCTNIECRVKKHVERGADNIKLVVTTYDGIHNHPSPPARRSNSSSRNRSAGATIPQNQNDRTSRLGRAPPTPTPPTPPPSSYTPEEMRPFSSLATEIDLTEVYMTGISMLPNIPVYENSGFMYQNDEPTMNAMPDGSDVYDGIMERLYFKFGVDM
MINI3 N302:MYC:His: residues 1-302 of Q9LG05
MINI3 C189:MYC:His: residues 297-485 of Q9LG05
UniProt Q6R8G6: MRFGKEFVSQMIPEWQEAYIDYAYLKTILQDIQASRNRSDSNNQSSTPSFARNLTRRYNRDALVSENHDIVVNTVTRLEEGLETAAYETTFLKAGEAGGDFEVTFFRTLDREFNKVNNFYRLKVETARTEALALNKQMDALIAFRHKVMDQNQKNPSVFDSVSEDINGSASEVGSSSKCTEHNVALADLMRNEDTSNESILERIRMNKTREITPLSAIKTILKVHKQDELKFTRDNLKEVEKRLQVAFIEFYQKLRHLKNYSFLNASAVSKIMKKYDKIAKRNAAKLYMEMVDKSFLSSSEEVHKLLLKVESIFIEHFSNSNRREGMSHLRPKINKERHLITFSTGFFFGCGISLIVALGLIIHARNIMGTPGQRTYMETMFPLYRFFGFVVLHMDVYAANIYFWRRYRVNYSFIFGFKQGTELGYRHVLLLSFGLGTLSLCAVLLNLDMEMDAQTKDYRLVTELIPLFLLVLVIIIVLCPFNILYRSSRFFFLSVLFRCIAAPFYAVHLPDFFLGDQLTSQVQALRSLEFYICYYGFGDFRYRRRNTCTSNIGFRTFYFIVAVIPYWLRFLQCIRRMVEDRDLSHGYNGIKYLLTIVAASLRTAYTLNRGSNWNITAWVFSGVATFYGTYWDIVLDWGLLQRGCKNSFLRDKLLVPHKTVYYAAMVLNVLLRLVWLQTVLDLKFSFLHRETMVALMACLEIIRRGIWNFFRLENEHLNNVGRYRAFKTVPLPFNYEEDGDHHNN

Columns and labels:
[1] = target: MINI3 N302:MYC:His (Arabidopsis thaliana) (UniProt Q9LG05); test: pull-down; His affinity-precipitation from protein extracts of Nicotiana leaves after transient expression (harvested 5 days after infiltration), cold co-precipitation buffer
[2] = target: MINI3 C189:MYC:His (Arabidopsis thaliana) (UniProt Q9LG05); test: as above

- binding [1]: binds
- binding [2]: no binding
Substance: SHB1:GFP (full-length SHB1 fused to GFP at its C-terminus) (from UniProt Q6R8G6)
